In PubChem BioAssay AID1671190 (National Center for Advancing Translational Sciences (NCATS), 2021):
Among all 580,000 compounds or so, about 6,100 (1.1%) were called active. Inconclusive results, whose numbers are uncertain, are shown with a selection of clear calls. Calls come from the whole dose curve; as a rule, active = well fitted inhibition curve with a large enough effect; inconclusive = small, poorly fitted or top-dose-only effect, or another doubt; inactive = no such curve, though single readings can be large or run the other way. Potencies beside an inconclusive call are fits to weak or partial responses and may not hold up.

The chains behind the UniProt entries cited, without tags or fusion partners. Where a name states a change or a piece, a line headed by the entry shows the natural chain unless it says otherwise.
UniProt P18054: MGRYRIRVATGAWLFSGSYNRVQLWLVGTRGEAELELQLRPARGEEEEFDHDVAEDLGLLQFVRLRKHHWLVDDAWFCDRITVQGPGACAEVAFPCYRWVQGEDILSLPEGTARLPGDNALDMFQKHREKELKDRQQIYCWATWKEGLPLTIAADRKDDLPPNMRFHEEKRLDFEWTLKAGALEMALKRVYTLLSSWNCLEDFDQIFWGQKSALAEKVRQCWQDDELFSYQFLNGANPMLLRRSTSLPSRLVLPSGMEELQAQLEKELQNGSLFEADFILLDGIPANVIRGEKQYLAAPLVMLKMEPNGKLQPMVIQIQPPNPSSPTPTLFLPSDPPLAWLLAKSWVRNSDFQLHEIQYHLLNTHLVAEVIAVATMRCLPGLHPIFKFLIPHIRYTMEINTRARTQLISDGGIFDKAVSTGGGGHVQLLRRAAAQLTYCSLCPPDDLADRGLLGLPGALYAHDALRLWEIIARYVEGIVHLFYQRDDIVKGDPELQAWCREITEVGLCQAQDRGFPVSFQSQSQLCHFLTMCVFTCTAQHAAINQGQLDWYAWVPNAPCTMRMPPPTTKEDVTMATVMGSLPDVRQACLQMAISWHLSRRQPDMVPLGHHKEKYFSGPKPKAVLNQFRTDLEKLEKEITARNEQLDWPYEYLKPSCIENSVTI

What follows are compounds tested against Polyunsaturated fatty acid lipoxygenase ALOX12 (Homo sapiens) (UniProt P18054) (assay: Primary qHTS assay for inhibitors of human arachidonate 12S-lipoxygenase (ALOX12): Round 2). Details: purified 12hLO, xylenol orange hydroperoxide absorbance; series mostly up to 108 µM.
Method in brief: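 Hydroperoxide product was detected by ferrous iron/xylenol orange as the 573 to 405 nm absorbance ratio. Arachidonic acid at 40 uM (final) was turned over for 30 min at room temperature by 150 nM human 12hLO, pH 7.0 Hepes buffer, after 15 min compound preincubation.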
Potency is the fitted concentration of half-maximal effect.

| SMILES | Potency |
| --- | --- |
| COc1ccc(/C(O)=C2\C(=O)C(=O)N(CCN(C)C)C2c2cccc(OC)c2OC)cc1 (stereo not drawn) | inactive |
| COc1cc(/C=C/c2[nH]c(=O)[nH]c(=O)c2[N+](=O)[O-])cc(OC)c1O | inconclusive: 50.1 µM [inhibitor, partial curve, poor fit] |
| CCCOc1cccc(C(=O)Nc2cccc(NC(=O)c3ccc(C(C)(C)C)cc3)c2)c1 | inconclusive: 35.5 µM [inhibitor, partial curve] |
| Cc1[nH]c(C)c(C(=O)/C=C/c2ccc([N+](=O)[O-])cc2)c1C | active: 31.6 µM |
| CCCNC(=O)C1(C)CCN(Cc2cccc(OC(=O)c3ccccc3)c2)C1 (stereo not drawn) | inconclusive: 79.4 µM [inhibitor, partial curve, poor fit] |
| CN(C)CC1(O)CCCN(Cc2ccc(-c3ccc(Cl)cc3)o2)C1 (stereo not drawn) | inactive |
| O=C(N/N=C/c1c(O)n(-c2ccc(Cl)cn2)c(=O)c2ccccc12)c1ccncc1 | inactive |
| COc1ccc(NC(=O)CSc2[nH]c(=O)cc(C)c2C#N)cc1OC | inactive |
| CN(C1CCCCC1)S(=O)(=O)Cc1ccccc1 | inconclusive: 44.7 µM [inhibitor, partial curve] |
| Cc1nc2ccc(NS(=O)(=O)c3ccc(F)c(F)c3)cc2s1 | inconclusive: 3.16 µM [inhibitor, full curve, poor fit] |
| Cc1nc2cc(NC(C)C(=O)Nc3cc(Cl)ccc3Cl)ccc2o1 (stereo not drawn) | inconclusive: 44.7 µM [inhibitor, partial curve, poor fit] |
| O=C1[C@@H]2C[C@@H](CN2C(=O)C2CCOCC2)Oc2ccccc2N1Cc1ccccc1 | inactive |
| O=[N+]([O-])c1ccc(S(=O)(=O)Nc2cccc(-c3ccc(N4CCCC4)nn3)c2)cc1 | inconclusive: 50.1 µM [inhibitor, partial curve, poor fit] |
| Cc1ccc(NC(=S)NCc2ccc(F)cc2)c(C)c1 | inconclusive: 50.1 µM [inhibitor, partial curve, poor fit] |
| CC(C)C[C@H]1CNC(=S)N1CC1CCN(CC2CCC(C(C)(C)C)CC2)CC1 (stereo partly drawn) | inconclusive: 4.47 µM [inhibitor, full curve, poor fit] |
| Cc1ccc(C(=O)O)cc1NC(=S)NCCc1ccccc1 | inconclusive: 56.2 µM [inhibitor, partial curve, poor fit] |
| O=S(=O)(c1ccccc1)c1nc(-c2ccco2)oc1N1CCN(c2ccccc2)CC1 | inactive |
| O=C(CCN1CCOCC1)c1ccc(Br)cc1 | inconclusive: 44.7 µM [inhibitor, partial curve] |
| O=C(NN=Cc1ccc(F)cc1)c1cccc(S(=O)(=O)N2CCCC2)c1 | active: 15.8 µM |
| CC(C)(C)N(Cc1ccccc1)C(=O)COC(=O)c1cc2ccccc2oc1=O | inconclusive: 89.1 µM [inhibitor, partial curve, poor fit] |
| CN(C)c1ccc(N=Nc2nccs2)cc1 | inactive |
| COc1ccc(Nc2nc(N3CCCC3)c3cnn(C)c3n2)c(OC)c1 | inconclusive: 50.1 µM [inhibitor, single point] |

2 neighbouring compounds from above:

| SMILES | Potency |
| --- | --- |
| O=C(CCN1CCOCC1)c1ccc(Br)cc1 | inconclusive: 44.7 µM [inhibitor, partial curve] |
| O=C(NN=Cc1ccc(F)cc1)c1cccc(S(=O)(=O)N2CCCC2)c1 | active: 15.8 µM |

Continued.

| SMILES | Potency |
| --- | --- |
| CCN(CC)c1ccc(NC(=O)c2cc3ccc(OC)cc3[nH]2)cc1 | inconclusive: 2.51 µM [inhibitor, full curve, poor fit] |
| Cc1ccc2nc(SCC(=O)NC3CCCC3)nc(=O)n2c1 | inactive |
| COC(=O)C1=CN(C(C)C)C=C(C(=O)OC)C1c1ccc(C(F)(F)F)cc1 | inconclusive: 50.1 µM [inhibitor, partial curve, poor fit] |
| Cc1ccc(SCCN2CCN(Cc3ccccc3)CC2)cc1 | inconclusive: 0.282 µM [inhibitor, full curve, poor fit] |
| CCCCCN(C(=O)CCC(=O)OCC(=O)NC1CCC(C)CC1)c1c(N)n(CCCC)c(=O)[nH]c1=O (stereo not drawn) | inconclusive: 141 µM [inhibitor, single point] |
| O=C(O)c1ccccc1C(=O)Nc1ccccc1NC(=O)c1ccccc1C(=O)O | inconclusive: 31.6 µM [inhibitor, partial curve, poor fit] |
| CCCCC(=O)Nc1ccccc1C(=O)OCc1cc(=O)n2nc(C3CCCCC3)sc2n1 | inconclusive: 100 µM [inhibitor, partial curve, poor fit] |
| CCOC(=O)c1ccc(NC(=O)N2Cc3[nH]cnc3C[C@H]2c2nc(-c3ccc(C)cc3)no2)cc1 | inactive |
| Cc1oc(-c2ccccc2)nc1CC(=O)Nc1ccc(Cl)cc1Cl | active: 7.94 µM |
| CC(NC(=O)c1cccs1)C(=O)N(CC#N)C1CC1 (stereo not drawn) | inactive |
| NC(=O)C1(c2ccccc2)CC1c1ccccc1 (stereo not drawn) | inconclusive: 15.8 µM [inhibitor, partial curve, poor fit] |
| Cc1ccc2c(c1)N(CC(=O)NCCc1ccccc1)C(=O)c1cccnc1O2 | inconclusive: 2.82 µM [inhibitor, full curve, poor fit] |
| Cc1ccc2c(N)c(C)ccc2c1 | inconclusive: 35.5 µM [inhibitor, single point] |
| Cc1ccc(S(=O)(=O)NCC(c2cccnc2)N2CCc3ccccc32)cc1 (stereo not drawn) | inactive |
| O=C(Cc1csc(-c2ccccc2)n1)Nc1ccc(C(F)(F)F)cc1 | inconclusive: 89.1 µM [inhibitor, single point] |
| CONC(=O)COC(c1ccccc1)c1ccccc1 | inconclusive: 89.1 µM [inhibitor, single point] |
| COc1ccc(S(=O)(=O)N2CCCCC2c2nc(-c3cnccn3)n[nH]2)cc1 (stereo not drawn) | inactive |
| COc1ccc2c(c1)-c1nc(/N=C/c3c(O)ccc4ccccc34)sc1CC2 | inconclusive: 50.1 µM [inhibitor, partial curve, poor fit] |
| CCn1c(Cn2nnc(-c3cccc(F)c3)n2)nc2cc(S(=O)(=O)N3CCCCC3)ccc21 | inactive |
| CCOC(=O)c1c(C)oc2ccc(NS(=O)(=O)c3ccc4c5c(cccc35)C(=O)N4)cc12 | inconclusive: 56.2 µM [inhibitor, partial curve, poor fit] |
| N#Cc1nc(Cc2ccccc2)oc1N1CCCC1 | inconclusive: 35.5 µM [inhibitor, partial curve, poor fit] |
